Data reported in PubChem BioAssay AID1439 (NMMLSC, 2008).
In all, about 220,000 compounds went through this assay and about 770 (0.35%) were called active. Inconclusive means that the source gave no clear call. Such entries were picked first, then a sample of the others. No stated cut-off is given here; in the data, active means binding response below about 49% or above about 150%; inconclusive means no clear call, values can overlap the other calls; inactive means in between.

The chains behind the UniProt entries cited, without tags or fusion partners.
UniProt P09471, whole entry, looked up: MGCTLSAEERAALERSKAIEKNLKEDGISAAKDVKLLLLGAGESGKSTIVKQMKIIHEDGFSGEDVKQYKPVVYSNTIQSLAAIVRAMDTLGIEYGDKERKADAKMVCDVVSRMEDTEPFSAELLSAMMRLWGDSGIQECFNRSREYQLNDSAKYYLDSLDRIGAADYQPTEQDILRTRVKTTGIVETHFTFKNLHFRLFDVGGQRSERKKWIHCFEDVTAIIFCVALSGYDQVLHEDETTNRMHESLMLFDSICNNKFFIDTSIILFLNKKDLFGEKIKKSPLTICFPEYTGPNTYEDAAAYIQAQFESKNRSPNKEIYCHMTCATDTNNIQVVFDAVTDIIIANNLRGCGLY

Molecular target: Guanine nucleotide-binding protein G(o) subunit alpha (Homo sapiens) (UniProt P09471)
Assay: RGS7-Galphao binding modulators, primary screen, biochemical, multiplexed bead flow cytometry (AID 1439);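 further: fluorescent Galphao held in activated GDP-AlF4 state binding bead-coupled RGS7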
Details: at 10 µM, actives lie on both sides

Row | Compound | binding response (% of control)
1 | COC(=O)c1ccc(C2=NOC(C)(c3sc(-c4ccccc4)nc3C)C2)cc1 (configuration not stated) | inconclusive: 104%
2 | O=C(Nc1nc2ccccc2[nH]1)C1CC1 | inconclusive: 115%
3 | CN1CCN(C(=O)c2cc(Oc3c(F)c(F)c(F)c(F)c3F)cc(C(=O)N3CCN(C)CC3)c2)CC1 | inconclusive: 69.3%
4 | COC(=O)C1=NN(C(=O)c2ccc(Br)cc2)C(O)(C(C)(C)C)C1 (configuration not stated) | inconclusive: 130%
5 | CCN(CC)S(=O)(=O)c1ccc(=O)[nH]c1 | inconclusive: 101%
6 | NC(=O)c1ccc(/C(N)=N/S(=O)(=O)c2cc(C(F)(F)F)cc(C(F)(F)F)c2)cc1 | inconclusive: 105%
7 | COc1ccc(C2SCC(=O)N2c2c(C)n(C)n(-c3ccccc3)c2=O)cc1 (configuration not stated) | inactive: 106%
8 | Cc1nc2ccc(N=NN(C)C)cc2[nH]1 | inconclusive: 8.7%
9 | Clc1cccc(-c2cc3nc4c(c(N5CCN(c6cnccn6)CC5)n3n2)CCCC4)c1 | inactive: 74%
10 | O=C(N/N=C/c1ccc(N2CCOCC2)cc1)C1COc2ccccc2O1 (configuration not stated) | inconclusive: 85.4%
11 | COc1ccc(OC)c(C(=O)CSc2nnc(Cc3cccs3)n2C)c1 | inactive: 103%
12 | CC(CCc1ccccc1)NC(=O)C1CCN(S(=O)(=O)N2CCOCC2)CC1 (configuration not stated) | active: 167% [activator]
13 | O=C(NCCN1CCCC1)c1cccc(Cl)c1 | inconclusive: 108%
14 | Cc1sc(NC(=O)c2ccco2)c(CN2CCN(Cc3ccccc3)CC2)c1C | inconclusive: 101%
15 | CN(C)c1nnnn1-c1cccc(Oc2ncc(C(F)(F)F)cc2Cl)c1 | inactive: 99.5%
16 | CN1CCN(C(=S)NC(=O)c2cccc(S(=O)(=O)N(C)C)c2)CC1 | inconclusive: 108%
17 | O=C(Nc1cc(-c2ccccc2)[nH]n1)c1ccccc1F | inconclusive: 85.8%
18 | CC(=O)c1cc(C#N)c(SCc2ccccn2)nc1C | inconclusive: 196%
19 | CCCc1cc(=O)c2c(O)ccc(OC)c2o1 | inconclusive: 131%
20 | CCN(CC)S(=O)(=O)c1ccc(N2CCOCC2)c(NCC(=O)Nc2ccc(F)cc2)c1 | inconclusive: 107%
21 | COc1ccc(C2=NN(C(=O)CSc3nnc(C)n3C)C(c3ccco3)C2)cc1 (configuration not stated) | inconclusive: 93.4%
22 | Cn1c(OCc2cccnc2)nc2c1c(=O)n(Cc1ccc(F)cc1)c(=O)n2C | inconclusive: 104%
23 | Cc1ccc(NC(=S)Nc2ccc(OC(F)F)c(Cl)c2)cc1F | inconclusive: 110%

Row | Compound | binding response (% of control)
24 | NC(=O)[C@H]1CC2(CC(c3cccc(NC(=O)[C@H]4CCC(=O)N4)c3)=NO2)CN1C(=O)c1ccccc1 (some centres not stated) | inconclusive: 114%
25 | CCC(=O)N1CCCc2ccccc21 | inconclusive: 94%
26 | CO/N=C/C(=N\Nc1ccc(C)cc1)C(=O)c1ccc(OC)cc1 | inactive: 105%
27 | Cc1nc(SCC(=O)NC2CCCCC2)[nH]c(=O)c1C | inconclusive: 85.8%
28 | CN1C(=O)N(C)C2(C)CC1(C)N(C)C(=O)N2C | inconclusive: 227%
29 | CC(=O)Nc1cccc(C(=O)Nc2cccnc2)c1 | inactive: 102%
30 | CCN(CC)S(=O)(=O)c1ccc(Cl)c(NC(=O)CSc2cccc[n+]2[O-])c1 | inconclusive: 113%
31 | Cc1nc2ccccc2c(=O)n1/N=C/c1ccc(O)cc1O | inconclusive: 90.4%
32 | COc1ccc(NC(=S)N/N=C/c2ccc(F)cc2)cc1OC | inactive: 108%
33 | COc1cccc(CC(NC(C)=O)C(=O)NC2CCN(c3nnnn3-c3ccccc3)CC2)c1OC (configuration not stated) | inconclusive: 109%
34 | c1ccc2c(c1)CCNC2c1ccncc1 (configuration not stated) | inconclusive: 129%
35 | COCCn1nnnc1C(C(C)C)N1CCC(Cc2ccccc2)CC1 (configuration not stated) | inactive: 102%
36 | COc1cc(C(=O)NC(=S)NNC(=O)c2ccc3c(c2)OCO3)cc(OC)c1OC | inconclusive: 76.2%
37 | Cc1occc1-c1nnc(SCC(=O)c2ccc3c(c2)OCCO3)n1CC1CCCO1 (configuration not stated) | inconclusive: 120%
38 | COc1ccc(NC(=O)C(=O)N/N=C(\C)CC(=O)Nc2cc(C)ccn2)c(OC)c1 | inconclusive: 106%
39 | CCOC(=O)COc1nc(C)cc(C(F)(F)F)c1C#N | inconclusive: 117%
40 | Cc1noc(NC(=O)c2ccccc2C(F)(F)F)c1C#N | inactive: 100%
41 | COc1ccc2ccccc2c1CNC(=O)CC1C(=O)NCCN1CC(C)(C)C (configuration not stated) | inconclusive: 94.1%
42 | O=C(COc1ccc(Br)cc1)Nc1nnc(-c2cccnc2)s1 | inconclusive: 58.7%
43 | O=C(O)/C=C/C(=O)Nc1ccc(O)cc1 | inconclusive: 96.3%
44 | C/C(CC(C)C)=N\Oc1nc(C)cc(C)n1 | inconclusive: 116%
45 | Cn1c(SCc2ccc(Br)cc2)nnc1-c1ccccn1 | inconclusive: 180%
46 | O=C(COC(=O)/C=C/c1ccc(Br)o1)Nc1ccccc1F | inconclusive: 48.8%

Of the compounds above, these have a thiophene ring, fused or not:
Row | Compound | binding response (% of control)
11 | COc1ccc(OC)c(C(=O)CSc2nnc(Cc3cccs3)n2C)c1 | inactive: 103%
14 | Cc1sc(NC(=O)c2ccco2)c(CN2CCN(Cc3ccccc3)CC2)c1C | inconclusive: 101%

Later entries.

Row | Compound | binding response (% of control)
47 | COc1ccc2nc(SCCC(=O)O)cc(C)c2c1 | inconclusive: -523%
48 | C/C=C/C(=O)OCC(=O)Nc1ccc(SC(F)F)cc1 | inconclusive: 105%
49 | Cc1ccn2c(CNCC3OCCc4ccccc43)c(C(=O)N3CCCCCC3)nc2c1 (configuration not stated) | inactive: 107%
50 | O=S(=O)(c1ccccc1)N1CCN(c2ccnc3cc(Cl)ccc23)CC1 | inconclusive: 90%
51 | CCC(=O)Nc1ccc(NC(=O)c2ccco2)cc1 | inactive: 97%
52 | CC(C)=CCC1=C(OCC(=O)O)C(=O)c2ccccc2C1=O | inconclusive: 81.2%
53 | O=c1c2cccc(Cl)c2nc2n1Cc1ccccc1-2 | inconclusive: -53.7%
54 | COc1ccccc1NC(=O)c1ccc(-n2cccn2)c([N+](=O)[O-])c1 | inconclusive: 98.5%
55 | CCc1ccc(N(C2C=CS(=O)(=O)C2)S(=O)(=O)c2ccc(C)cc2)cc1 (configuration not stated) | inconclusive: 231%
56 | CC(=O)c1ccccc1NC(=O)Cn1c(=O)cnc2ccccc21 | inactive: 102%
57 | COc1ccccc1NC(=O)c1cc(Cl)nc2ccccc12 | inconclusive: 95.3%
58 | NC(=O)CC(NC(=O)c1ccccc1)c1ccc(NC2CCCC2)c([N+](=O)[O-])c1 (configuration not stated) | inconclusive: 103%
59 | Cc1ccc(/C=N/N2CCN(C3c4ccccc4-c4ccccc43)CC2)o1 | inconclusive: -12.8%
60 | COc1ccc(NC(=O)c2cc(C)n(Cc3cccs3)c2C)cc1 | inconclusive: 105%
61 | COc1ccc(OCc2nc(-c3ccc(F)c(F)c3)cs2)cc1 | inconclusive: 139%
62 | CCN1CCN(Cc2ccc(NC(=O)c3cc(NC(=O)N4CCNC4=O)cc(OC)c3)cc2C(F)(F)F)CC1 | inconclusive: 107%
63 | COCCCN1CN(S(=O)(=O)c2cccs2)c2nc3ccccc3nc21 | inconclusive: 98.5%
64 | O=C(CSc1cccc[n+]1[O-])NC1CCCCCCC1 | inconclusive: 97.3%
65 | FC(F)(F)c1ccc(CN2C[C@@H]3C(c4ccccc4)C4(c5cccnc5)CC3(C4)[C@H]2c2ccccc2)cc1 (some centres not stated) | inconclusive: 72%
66 | O=C(COC(=O)c1cccc2ccccc12)NCC1CCCO1 (configuration not stated) | inconclusive: 99%
67 | Cc1ccc(CNC(=O)CCNS(=O)(=O)c2cccs2)cc1 | inactive: 98.7%
68 | CC(=O)N/C(=C\c1ccc(Cl)cc1)C(=O)O | inconclusive: 140%
69 | O=C(COC(=O)/C=C/c1ccc2c(c1)OCO2)Nc1ccccc1 | inconclusive: 91.8%

Row | Compound | binding response (% of control)
70 | CCCc1cc(=O)[nH]c(SCC(=O)NC2CCCc3ccccc32)n1 (configuration not stated) | inconclusive: 106%
71 | CC(=O)Nc1cccc(-n2nnc(SCC(=O)Nc3ccc(F)c(Cl)c3)n2)c1 | inconclusive: 90.9%
72 | O=C(CNC(=O)c1cccc(OC(F)F)c1)OCC(=O)c1ccccc1 | inconclusive: 99.4%
73 | NC(=O)COc1cccc(/C=N/NC(=O)c2ccc(-n3cccc3)cc2)c1 | inconclusive: 98.6%
74 | S=C(N/N=C/c1cccs1)NC1CC2CCC1C2 (configuration not stated) | inconclusive: 88.6%
75 | O=C(NNc1cccc(Cl)n1)Nc1ccc(F)cc1 | inconclusive: 137%
76 | COc1cc(NC(=O)N2CCNC2=O)cc(C(=O)Nc2cccc(C(F)(F)F)c2)c1 | inconclusive: 101%
77 | COc1ccc(S(=O)(=O)N2CCCCC2)cc1NC(=O)c1cccnc1SC | inconclusive: 121%
78 | COc1cc(OC)c(NC(=O)c2ccc3c(SCC(=O)O)c4c(nc3c2)CCCC4)cc1Cl | inactive: 97.8%
79 | CC(C)(C)OC(=O)NCCCCCc1nnc(SCc2ccccc2F)o1 | inconclusive: 205%
80 | O=C(COc1ccccc1)NCC(=O)N/N=C/c1ccc(O)cc1O | inconclusive: 75.6%
81 | Cc1ccc(Nc2nc(N)c([N+](=O)[O-])c(NCCO)n2)cc1 | inconclusive: 114%
82 | Cn1nc(C(F)(F)F)cc1-c1ccc(/C=C(\C#N)C(=O)c2ccccc2)s1 | inconclusive: 195%
83 | O=C(O)c1nn(-c2ccccc2C(F)(F)F)cc1O | inconclusive: 83.4%
84 | CC1(C)CC(=O)C/C(=N/NC(=O)c2ccc(-c3ccccc3)cc2)C1 | inconclusive: 110%
85 | O=S(=O)(NCCNS(=O)(=O)c1ccc(F)cc1)c1ccc(F)cc1 | inactive: 97.1%
86 | O=C(Nc1cccc(C(F)(F)F)c1)C(Sc1n[nH]c(=O)[nH]c1=O)c1ccccc1 (configuration not stated) | inconclusive: 106%
87 | CCCn1cc(CN2CCC(Cc3cccc(F)c3)(C(=O)OCC)CC2)c(C)n1 | inconclusive: 106%
88 | N#Cc1nc(-c2ccco2)oc1NCc1ccccc1Cl | inconclusive: 114%
89 | O=C(c1cc2ccccc2oc1=O)N1CCOCC1 | inconclusive: 70.4%
90 | CCCOCCc1nnc(N)s1 | inconclusive: 113%
91 | O=c1c2cc(Cl)ccc2[nH]c(=S)n1Cc1cccs1 | inactive: 95%
92 | CCOc1ccc(C(C)=O)cc1CSc1nc2nc(C)cc(C)n2n1 | inconclusive: 105%

Some values from the entries so far:
binding response (% of control) with `CC1(C)CC(=O)C/C(=N/NC(=O)c2ccc(-c3ccccc3)cc2)C1` reads inconclusive: 110%
binding response (% of control) with `COc1ccc(OC)c(C(=O)CSc2nnc(Cc3cccs3)n2C)c1` reads inactive: 103%
binding response (% of control) with `CCCOCCc1nnc(N)s1` reads inconclusive: 113%

Sorted by formula weight (descending): part of the list above.
Row | Compound | binding response (% of control)
33 | COc1cccc(CC(NC(C)=O)C(=O)NC2CCN(c3nnnn3-c3ccccc3)CC2)c1OC (configuration not stated) | inconclusive: 109%
11 | COc1ccc(OC)c(C(=O)CSc2nnc(Cc3cccs3)n2C)c1 | inactive: 103%
72 | O=C(CNC(=O)c1cccc(OC(F)F)c1)OCC(=O)c1ccccc1 | inconclusive: 99.4%
